# Data from the supplement of paper PMC8728848.
# The list shows a part of the results.
# Tests used:
# Experiment in all cases: glycan array binding signal (z-score within array); higher = stronger binding
# Settings in all cases: glycan notation: IUPAC condensed, linker removed
# [1] = biological target: Neu5Ac(a2-6)Gal(b1-4)GlcNAc(b1-3)Gal(b1-4)GlcNAc(b1-3)Gal(b1-4)GlcNAc(b1-2)Man(a1-3)[Neu5Ac(a2-6)Gal(b1-4)GlcNAc(b1-3)Gal(b1-4)GlcNAc(b1-3)Gal(b1-4)GlcNAc(b1-2)Man(a1-6)]GalNAc
# Method in brief: (§1)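 Glycan array data were curated from 3228 arrays in the Consortium for Functional Glycomics database and kept only where the protein sequence was available. Glycan names were converted to IUPAC-condensed notation, and columns mapping to the same glycan were averaged. The binding signal is a within-array Z-score, averaged across arrays of the same protein sequence at different concentrations or buffers and across linkers. Negative Z-scores can be read as non-binding.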
# [2] = biological target: Neu5Ac(a2-6)Gal(b1-4)GlcNAc(b1-3)Gal(b1-4)GlcNAc(b1-3)GalNAc
# Method in brief: as §1
# [3] = biological target: Neu5Ac(a2-6)Gal(b1-4)GlcNAc(b1-3)Gal(b1-4)GlcNAc(b1-3)[Neu5Ac(a2-6)Gal(b1-4)GlcNAc(b1-3)Gal(b1-4)GlcNAc(b1-6)]GalNAc
# Method in brief: as §1
# [4] = biological target: Neu5Ac(a2-6)Gal(b1-4)GlcNAc(b1-3)Gal(b1-4)GlcNAc(b1-6)[Gal(b1-3)]GalNAc
# Method in brief: as §1
# [5] = biological target: Neu5Ac(a2-6)Gal(b1-4)GlcNAc(b1-3)Gal(b1-4)[Fuc(a1-3)]GlcNAc(b1-3)Gal(b1-4)[Fuc(a1-3)]GlcNAc
# Method in brief: as §1
# [6] = biological target: Neu5Ac(a2-6)Gal(b1-4)GlcNAc(b1-3)GalNAc
# Method in brief: as §1
# [7] = biological target: Neu5Ac(a2-6)Gal(b1-4)GlcNAc(b1-3)[Neu5Ac(a2-6)Gal(b1-4)GlcNAc(b1-6)]GalNAc
# Method in brief: as §1
# [8] = biological target: Neu5Ac(a2-6)Gal(b1-4)GlcNAc(b1-6)GalNAc
# Method in brief: as §1
# [9] = biological target: Neu5Ac(a2-6)Gal(b1-4)GlcNAc(b1-6)[Gal(b1-3)GlcNAc(b1-3)]Gal(b1-4)Glc
# Method in brief: as §1
# [10] = biological target: Neu5Ac(a2-6)Gal(b1-4)GlcNAc(b1-6)[Gal(b1-3)]GalNAc
# Method in brief: as §1
# [11] = biological target: Neu5Ac(a2-6)Gal(b1-4)GlcNAc6S
# Method in brief: as §1
# Neu5Ac(a2-6)GalNAc = biological target: Neu5Ac(a2-6)GalNAc
# Method in brief: as §1
# [12] = biological target: Neu5Ac(a2-6)GalNAc(b1-4)GlcNAc
# Method in brief: as §1
# [13] = biological target: Neu5Ac(a2-6)GalNAc(b1-4)GlcNAc6S
# Method in brief: as §1
# [14] = biological target: Neu5Ac(a2-6)GlcNAc(b1-4)GlcNAc
# Method in brief: as §1
# [15] = biological target: Neu5Ac(a2-6)GlcNAc(b1-4)GlcNAc(b1-4)GlcNAc
# Method in brief: as §1
# Neu5Ac(a2-8)Neu5Ac = biological target: Neu5Ac(a2-8)Neu5Ac
# Method in brief: as §1
# [16] = biological target: Neu5Ac(a2-8)Neu5Ac(a2-3)Gal(b1-3)GalNAc(b1-4)[Neu5Ac(a2-3)]Gal(b1-4)Glc
# Method in brief: as §1
# [17] = biological target: Neu5Ac(a2-8)Neu5Ac(a2-3)Gal(b1-3)GalNAc(b1-4)[Neu5Ac(a2-8)Neu5Ac(a2-3)]Gal(b1-4)Glc
# Method in brief: as §1
# [18] = biological target: Neu5Ac(a2-8)Neu5Ac(a2-3)Gal(b1-4)Glc
# Method in brief: as §1
# [19] = biological target: Neu5Ac(a2-8)Neu5Ac(a2-3)Gal(b1-4)GlcNAc
# Method in brief: as §1
# [20] = biological target: Neu5Ac(a2-8)Neu5Ac(a2-3)[Gal(b1-3)GalNAc(b1-4)]Gal(b1-4)Glc
# Method in brief: as §1
# [21] = biological target: Neu5Ac(a2-8)Neu5Ac(a2-3)[GalNAc(b1-4)]Gal(b1-4)Glc
# Method in brief: as §1
# [22] = biological target: Neu5Ac(a2-8)Neu5Ac(a2-8)Neu5Ac
# Method in brief: as §1
# [23] = biological target: Neu5Ac(a2-8)Neu5Ac(a2-8)Neu5Ac(a2-3)Gal(b1-4)Glc
# Method in brief: as §1
# [24] = biological target: Neu5Ac(a2-8)Neu5Ac(a2-8)Neu5Ac(a2-3)[Gal(b1-3)GalNAc(b1-4)]Gal(b1-4)Glc
# Method in brief: as §1
# [25] = biological target: Neu5Ac(a2-8)Neu5Ac(a2-8)Neu5Ac(a2-3)[GalNAc(b1-4)]Gal(b1-4)Glc
# Method in brief: as §1
# [26] = biological target: Neu5Ac(a2-8)Neu5Ac(a2-8)Neu5Ac(a2-8)Neu5Ac(a2-3)[GalNAc(b1-4)]Gal(b1-4)Glc
# Method in brief: as §1
# [27] = biological target: Neu5Ac(a2-8)Neu5Gc(a2-3)Gal(b1-4)GlcNAc
# Method in brief: as §1
# [28] = biological target: Neu5Ac(b2-6)Gal(b1-4)GlcNAc
# Method in brief: as §1
# Neu5Ac(b2-6)GalNAc = biological target: Neu5Ac(b2-6)GalNAc
# Method in brief: as §1
# [29] = biological target: Neu5Ac9Ac(a2-3)Gal(b1-3)GlcNAc
# Method in brief: as §1
# [30] = biological target: Neu5Ac9Ac(a2-3)Gal(b1-4)GlcNAc
# Method in brief: as §1
# [31] = biological target: Neu5Ac9Ac(a2-6)Gal(b1-4)GlcNAc
# Method in brief: as §1
# [32] = biological target: Neu5Gc(a2-3)Gal(b1-3)GlcNAc
# Method in brief: as §1
# [33] = biological target: Neu5Gc(a2-3)Gal(b1-3)[Fuc(a1-4)]GlcNAc
# Method in brief: as §1
# Neu5Gc(a2-3)Gal(b1-4)Glc = biological target: Neu5Gc(a2-3)Gal(b1-4)Glc
# Method in brief: as §1
# [34] = biological target: Neu5Gc(a2-3)Gal(b1-4)GlcNAc
# Method in brief: as §1
# [35] = biological target: Neu5Gc(a2-3)Gal(b1-4)GlcNAc(b1-3)Gal(b1-4)GlcNAc(b1-2)Man(a1-3)[Neu5Gc(a2-3)Gal(b1-4)GlcNAc(b1-3)Gal(b1-4)GlcNAc(b1-2)Man(a1-6)]Man(b1-4)GlcNAc(b1-4)GlcNAc
# Method in brief: as §1
# [36] = biological target: Neu5Gc(a2-3)Gal(b1-4)[Fuc(a1-3)]GlcNAc
# Method in brief: as §1
# [37] = biological target: Neu5Gc(a2-6)Gal(b1-4)GlcNAc
# Method in brief: as §1
# Neu5Gc(a2-6)GalNAc = biological target: Neu5Gc(a2-6)GalNAc
# Method in brief: as §1
# [38] = biological target: Neu5Gc(a2-8)Neu5Ac(a2-3)Gal(b1-4)GlcNAc
# Method in brief: as §1
# [39] = biological target: Neu5Gc(a2-8)Neu5Gc(a2-3)Gal(b1-4)GlcNAc
# Method in brief: as §1
# [40] = biological target: Neu5Gc(a2-8)Neu5Gc(a2-3)Gal(b1-4)GlcNAc(b1-3)Gal(b1-4)GlcNAc
# Method in brief: as §1
binder,measurement,setting,value
RobpsCRA (Robinia pseudoacacia) (protein) IKGGYWYSGSGLAVSDINPSHFTHLFCAFADLDPNTNKLTISSSNAAAFSTFTQTVRAKNPSVKTLLSIGGGGGRALAAVFANMASQASRRKSFIDSSIQLARRNNFHGLDLDWEYPSSDIDKTNFASLIREWRAAVATESSTSGTPALLLSAAVGGSDQITPLKYYPGEAIANNLDWVNVMTYDLYTSDSYPTLTQPPAPLFYPRGIFSADEGITKWIQSGVPESKLALGLPFYGFKWRLSDPNNHGLFAPATQGLGAVKYKDIVNTGGQVEFDSTYVTNYCFKGTDWYGYDDTQSISAKVAYAKQRGLFGYFAWHIEQDSNWALS,glycan array binding signal (z-score),[1],1.18
same,glycan array binding signal (z-score),[2],-0.398
same,glycan array binding signal (z-score),[3],-0.335
same,glycan array binding signal (z-score),[4],-0.564
same,glycan array binding signal (z-score),[5],-0.076
same,glycan array binding signal (z-score),[6],-0.048
same,glycan array binding signal (z-score),[7],-0.249
same,glycan array binding signal (z-score),[8],0.634
same,glycan array binding signal (z-score),[9],0.487
same,glycan array binding signal (z-score),[10],-0.951
same,glycan array binding signal (z-score),[11],-0.072
same,glycan array binding signal (z-score),Neu5Ac(a2-6)GalNAc,-0.839
same,glycan array binding signal (z-score),[12],-0.929
same,glycan array binding signal (z-score),[13],-0.23
same,glycan array binding signal (z-score),[14],0.265
same,glycan array binding signal (z-score),[15],-0.344
same,glycan array binding signal (z-score),Neu5Ac(a2-8)Neu5Ac,-0.223
same,glycan array binding signal (z-score),[16],-0.396
same,glycan array binding signal (z-score),[17],-0.018
same,glycan array binding signal (z-score),[18],-0.519
same,glycan array binding signal (z-score),[19],-0.39
same,glycan array binding signal (z-score),[20],0.946
same,glycan array binding signal (z-score),[21],-0.427
same,glycan array binding signal (z-score),[22],0.253
same,glycan array binding signal (z-score),[23],-0.293
same,glycan array binding signal (z-score),[24],-0.503
same,glycan array binding signal (z-score),[25],0.6
same,glycan array binding signal (z-score),[26],-0.203
same,glycan array binding signal (z-score),[27],-0.354
same,glycan array binding signal (z-score),[28],0.109
same,glycan array binding signal (z-score),Neu5Ac(b2-6)GalNAc,-0.841
same,glycan array binding signal (z-score),[29],-0.592
same,glycan array binding signal (z-score),[30],-0.104
same,glycan array binding signal (z-score),[31],-0.38
same,glycan array binding signal (z-score),[32],-0.446
same,glycan array binding signal (z-score),[33],-0.831
same,glycan array binding signal (z-score),Neu5Gc(a2-3)Gal(b1-4)Glc,-0.272
same,glycan array binding signal (z-score),[34],-0.883
same,glycan array binding signal (z-score),[35],0.49
same,glycan array binding signal (z-score),[36],-0.028
same,glycan array binding signal (z-score),[37],-0.046
same,glycan array binding signal (z-score),Neu5Gc(a2-6)GalNAc,-0.149
same,glycan array binding signal (z-score),[38],0.645
same,glycan array binding signal (z-score),[39],-0.398
same,glycan array binding signal (z-score),[40],-0.528

# In a second layout: entries from further up
binder | measurement | setting | value
RobpsCRA (Robinia pseudoacacia) (protein) IKGGYWYSGSGLAVSDINPSHFTHLFCAFADLDPNTNKLTISSSNAAAFSTFTQTVRAKNPSVKTLLSIGGGGGRALAAVFANMASQASRRKSFIDSSIQLARRNNFHGLDLDWEYPSSDIDKTNFASLIREWRAAVATESSTSGTPALLLSAAVGGSDQITPLKYYPGEAIANNLDWVNVMTYDLYTSDSYPTLTQPPAPLFYPRGIFSADEGITKWIQSGVPESKLALGLPFYGFKWRLSDPNNHGLFAPATQGLGAVKYKDIVNTGGQVEFDSTYVTNYCFKGTDWYGYDDTQSISAKVAYAKQRGLFGYFAWHIEQDSNWALS | glycan array binding signal (z-score) | [38] | 0.645
same | glycan array binding signal (z-score) | [39] | -0.398
same | glycan array binding signal (z-score) | [40] | -0.528
